Reference: the supplement of paper PMC7830784
Where a name gives a salt, the structure may show the parent alone. The list shows a part of the results. Single values are uncertain here, since repeats match poorly. Starred links: 1 amine or outer side, 2 acyl side, 3 side chain; linkers in the order of their positions; H or OH if unused. Positions of bridges follow the written chain, without caps; N, C: chain ends. Non-standard residues stand in square brackets, D forms with d. Residues, ends and D or L forms follow the SMILES beside them. ξ: configuration not given here. *: point of attachment. X2 = N=C1NCCC([C@H](N[*:1])C(=O)[*:2])N1; ΔAla(Z-3-ureido) = NC(=O)N/C=C(\N)C(=O)O; X4 = O=C([C@H](N[*:1])C1CCC(O)CC1)[*:2]; X6 = O=C(C(N[*:1])C1CCC(O)C(Cl)C1)[*:2]; X5 = O=C(C(N[*:1])C1CCC(O)CC1)[*:2]; aThr = C[C@H](O)[C@H](N)C(=O)O; dOrn = NCCC[C@@H](N)C(=O)O; ξβ3hOrn = NCCCC(N)CC(=O)*; X3 = CCC/C=C\C=C/C(=O)*; Dap = NC[C@H](N)C(=O)O; ξN = NC(=O)CC(N)C(=O)O

What follows are compounds tested on Brugia pahangi adult female (assay: motility inhibition on day 3 relative to DMSO vehicle; higher = more active). Conditions: 10 µM; 3 days.

Structure (SMILES)	motility inhibition on day 3
COc1ccc(O)cc1 [mequinol]	12.9%
CC(=O)NC(Cc1ccccc1)C(=O)O (stereo unspecified) [afalanine]	22.1%
CCCCCCCCCCCCCCCCCCCCCCO [docosanol]	< 0%
CN[C@@H]1[C@@H](O[C@H]2O[C@H](CO)[C@@H](N)[C@H](O)[C@H]2O)OC2C[C@@H](N)[C@@H](O[C@H]3[C@H](O)[C@@H](O)[C@H](N)C[C@@H]3N)OC2[C@@H]1O (stereo partly specified) [apramycin sulfate]	1.34%
CC12CCC(CC1=O)C2(C)C (stereo unspecified) [camphor (1r)]	< 0%
C[C@@H]1NC(=O)[C@@H](N)CNC(=O)[C@H](C2CCNC(=N)N2)NC(=O)/C(=C/NC(N)=O)NC(=O)[C@H](CNC(=O)CC(N)CCCN)NC1=O.N=C1NCC[C@H]([C@@H]2NC(=O)/C(=C/NC(N)=O)NC(=O)[C@H](CNC(=O)C[C@@H](N)CCCN)NC(=O)[C@H](CO)NC(=O)[C@@H](N)CNC2=O)N1 [capreomycin sulfate] (H-[Dap]S[Dap](ξβ3hOrn)[ΔAla(Z-3-ureido)][X2]; lactam 1-C)	< 0%
C[C@](N)(Cc1ccc(O)c(O)c1)C(=O)O [L-alpha-Methyl DOPA]	17.3%
Clc1ccc(C(Cn2ccnc2)OCc2ccsc2Cl)c(Cl)c1 (stereo unspecified) [tioconazole]	99.5%
C[C@H]1c2cccc(O)c2C(=O)C2=C(O)[C@]3(O)C(=O)C(C(N)=O)=C(O)[C@@H](N(C)C)[C@@H]3[C@@H](O)[C@@H]21 [doxycycline hydrochloride]	< 0%
O=C1/C(=C/c2cccs2)CCC/C1=C\c1cccs1 [tenylidone]	58.5%
CCOC(=O)COc1ccc2c(=O)cc(-c3ccccc3)oc2c1 [efloxate]	2.99%
O=C(O)C(=O)O.[NH-][C@@H]1CCCC[C@H]1[NH-].[Pt+2] [oxaliplatin]	11.9%
CC(C)C(=O)Oc1ccc(CO)cc1[C@H](CCN(C(C)C)C(C)C)c1ccccc1 [Fesoterodine fumarate]	< 0%
Cc1ccc(NC(=O)c2ccc(CN3CCN(C)CC3)cc2)cc1Nc1nccc(-c2cccnc2)n1 [imatinib]	27%
Cc1cc(C(C)(C)C)c(O)c(C(C)(C)C)c1 [2,6-di-t-butyl-4-methylphenol]	1.62%
C#CCN[C@@H]1CCc2ccccc21 [rasagiline]	25.2%
NC(=O)CCC/N=C(\c1ccc(Cl)cc1)c1cc(F)ccc1O [Progabide]	2.25%
CCOc1nc2cccc(C(=O)OCc3oc(=O)oc3C)c2n1Cc1ccc(-c2ccccc2-c2noc(=O)[nH]2)cc1 [azilsartan kamedoxomil]	< 0%
O=C(O)c1cn(C2CC2)c2cc(N3CCNCC3)c(F)cc2c1=O [ciprofloxacin]	1.97%
CCc1nc(N)nc(N)c1-c1ccc(Cl)cc1 [pyrimethamine]	< 0%
CC(=O)[C@@]1(O)CC[C@H]2[C@@H]3C[C@H](C)C4=CC(=O)C=C[C@]4(C)[C@@]3(F)[C@@H](O)C[C@@]21C [fluorometholone]	28.6%
CCC/C=C\C=C/C(=O)N[C@@H](CC(N)=O)C(=O)NC(CC(N)=O)C(=O)N[C@@H](C(=O)N[C@H](CCCN)C(=O)N[C@@H](C(=O)N[C@@H](C(=O)N[C@@H](C(=O)N[C@H](C(=O)N[C@@H](Cc1ccccc1)C(=O)N[C@H](CCCN)C(=O)NC(C(=O)N[C@H](C(=O)NC(C(=O)NCC(=O)N[C@@H](CC(C)C)C(=O)N[C@H](C)C(=O)NC(C(=O)O)C1CCC(O)C(Cl)C1)C1CCC(O)CC1)[C@H](C)O)C1CCC(O)CC1)[C@H](C)O)C1CCC(O)CC1)C1CCC(O)CC1)[C@H](C)O)C1CCC(O)CC1 (stereo partly specified) [ramoplanin [a2 shown; 2mm]] (X3-N[ξN][X4][dOrn][dT][X4][X4][aThr]F[dOrn][X5][aThr][X5]GL[dA][X6]-OH)	< 0%

Structure (SMILES)	motility inhibition on day 3
CN1CC(=O)N2[C@H](c3ccc4c(c3)OCO4)c3[nH]c4ccccc4c3C[C@@H]2C1=O [tadalafil]	24.4%
C1CCC(C(CC2CCCCN2)C2CCCCC2)CC1 (stereo unspecified) [perhexiline maleate]	97.1%
CCCN1CCCC[C@H]1C(=O)Nc1c(C)cccc1C	14.1%
COc1cc(C(=O)NCc2ccc(OCCN(C)C)cc2)cc(OC)c1OC [trimethobenzamide hydrochloride]	9.51%
O=C(O)COCCN1CCN(C(c2ccccc2)c2ccc(Cl)cc2)CC1 (stereo unspecified) [cetirizine hydrochloride]	14.6%
CCCCC(CC)CCC(CC(C)C)OS(=O)(=O)O (stereo unspecified) [sodium tetradecyl sulfate]	< 0%
N[C@@H]1CONC1=O [D-Cycloserine]	< 0%
CC(=O)O[C@]1(C(C)=O)CC[C@H]2[C@@H]3C=C(Cl)C4=CC(=O)[C@@H]5C[C@@H]5[C@]4(C)[C@H]3CC[C@@]21C [cyproterone acetate]	23.5%
N=C(N)c1ccc(/C=C/c2ccc(C(=N)N)cc2O)cc1 [Hydroxystilbamidine bis(methanesulfonate)]	< 0%
Clc1ccc(CO/N=C(\Cn2ccnc2)c2ccc(Cl)cc2Cl)c(Cl)c1 [oxiconazole nitrate]	40.5%
C#C[C@]1(OC(C)=O)CC[C@H]2[C@@H]3CCC4=CC(=NO)CC[C@@H]4[C@H]3CC[C@@]21CC (mixture of isomers) [norgestimate]	8.31%
CCCc1c2oc(C(=O)O)cc(=O)c2cc2c(=O)cc(C(=O)O)n(CC)c12 [Nedocromil]	< 0%
COc1ccc2cc([C@H](C)CO)ccc2c1 [naproxol]	8.15%
O=C1c2ccccc2C(=O)C1c1ccc(Cl)cc1 [chlorindione]	< 0%
Clc1ccc(Cn2c(CN3CCCC3)nc3ccccc32)cc1 [clemizole hydrochloride]	78.3%
COc1cc2nc(N(C)CCCNC(=O)C3CCCO3)nc(N)c2cc1OC (stereo unspecified) [alfuzosin hydrochloride]	20.8%
CCCN(CCc1cccs1)C1CCc2c(O)cccc2C1 (racemic) [rac-Rotigotine Hydrochloride]	< 0%
CCCCCCCCCCCCCCCC(=O)OC[C@@H](NC(=O)C(Cl)Cl)[C@H](O)c1ccc([N+](=O)[O-])cc1 [chloramphenicol palmitate]	32.6%
NC[C@@H]1CC[C@@H](N)[C@@H](O[C@H]2[C@H](O)[C@@H](O[C@H]3O[C@H](CO)[C@@H](O)[C@H](N)[C@H]3O)[C@H](N)C[C@@H]2N)O1 [dibekacin]	21.5%
CC1=C(/C=C/C(C)=C/C=C/C(C)=C/C(=O)O)C(C)(C)CCC1 [tretinon]	8.34%
N=C(N)NS(=O)(=O)c1ccc(N)cc1 [sulfaguanidine]	< 0%
CC(=O)Oc1ccccc1C(=O)O [aspirin]	< 0%

Structure (SMILES)	motility inhibition on day 3
Cc1ncc(CO)c(CO)c1O [pyridoxine]	5.99%
COc1cc2c3cc1Oc1cc(ccc1O)C[C@@H]1c4c(cc(OC)c(O)c4Oc4ccc(cc4)C[C@@H]3N(C)CC2)CC[N+]1(C)C [tubocurarine chloride]	< 0%
CC1(C)[C@H](C(=O)O)N2C(=O)C[C@H]2S1(=O)=O [sulbactam]	8.34%
CC1=C(C(=O)O)N2C(=O)[C@@H](NC(=O)[C@H](N)C3=CCC=CC3)[C@H]2SC1 [cephradine]	11.6%
N[C@@H](CCC(=O)N[C@@H](CS)C(=O)NCC(=O)O)C(=O)O [glutathione]	< 0%
COc1cc(C(=O)NCCCCCC(=O)O)cc(OC)c1OC [capobenic acid]	9.45%
CCc1c(C)[nH]c2c1C(=O)C(CN1CCOCC1)CC2 (stereo unspecified) [Molindone Hydrochloride]	0.93%
CCCN(CCC)S(=O)(=O)c1ccc(C(=O)O)cc1 [probenecid]	14.8%
CCN(CC)C(=O)c1cccnc1 [nikethamide]	42.3%
CCN(CC)C(=O)c1cccc(C)c1 [deet]	10.4%
C[C@]12CC[C@@H]3c4ccc(O)cc4CC[C@H]3[C@@H]1CC[C@@H]2O [estradiol]	7.8%
NC(Cc1cc(I)c(Oc2cc(I)c(O)c(I)c2)c(I)c1)C(=O)O (stereo unspecified) [thyroxine]	28.1%
CN(C)CC/C=C1/c2ccccc2Sc2ccc(Cl)cc21 [chlorprothixene hydrochloride]	15.5%
CC(=O)[C@H]1CC[C@H]2[C@@H]3CCC4=CC(=O)CC[C@]4(C)[C@H]3CC[C@]12C [progesterone]	12.6%
COc1ccc2[nH]c([S+]([O-])Cc3ncc(C)c(OC)c3C)nc2n1 (stereo unspecified) [tenatoprazole]	< 0%
O=C(O)CCCCC(=O)O [adipic acid]	0.305%
CN(C)CCOC(c1ccccc1)c1ccccc1 [Diphenhydramine hydrochloride]	< 0%
COc1cc(O)c(C(=O)c2ccccc2)cc1S(=O)(=O)O [sulisobenzone]	2.73%
N=C(N)NC(=O)Cc1c(Cl)cccc1Cl [guanfacine hydrochloride]	13.6%
CCCCCCCCCC(=O)N[C@@H](Cc1c[nH]c2ccccc12)C(=O)N[C@@H](CC(N)=O)C(=O)N[C@@H](CC(=O)O)C(=O)N[C@@H]1C(=O)NCC(=O)N[C@@H](CCCN)C(=O)N[C@@H](CC(=O)O)C(=O)N[C@H](C)C(=O)N[C@@H](CC(=O)O)C(=O)NCC(=O)N[C@H](CO)C(=O)N[C@@H]([C@H](C)CC(=O)O)C(=O)N[C@@H](CC(=O)c2ccccc2N)C(=O)O[C@@H]1C [daptomycin (5 millimolar/dmso)]	8.94%
C[n+]1cc2c3c(ccc2c2ccc4cc5c(cc4c21)OCO5)OCO3 [Sanguinarine chloride]	95.2%
Clc1ccc(CSC(Cn2ccnc2)c2ccc(Cl)cc2Cl)cc1 (stereo unspecified) [sulconazole nitrate]	98.3%

Sorted by length of the SMILES (rising): some entries from above
Structure (SMILES)	motility inhibition on day 3
O=C1c2ccccc2C(=O)C1c1ccc(Cl)cc1 [chlorindione]	< 0%
Cc1cc(C(C)(C)C)c(O)c(C(C)(C)C)c1 [2,6-di-t-butyl-4-methylphenol]	1.62%
COc1cc2c3cc1Oc1cc(ccc1O)C[C@@H]1c4c(cc(OC)c(O)c4Oc4ccc(cc4)C[C@@H]3N(C)CC2)CC[N+]1(C)C [tubocurarine chloride]	< 0%
